According to patent publication US20050037956A1, “Screening method for agents useful in treating diabetes” (priority 2001, published 2005):
At least one structure is not confirmed: it was looked up by name or label, or the drawing left a doubt.

Tested on: PAI-1 expression
Test: PAI-1 induction by insulin in adipocytes in presence of PI3K or MEK1 inhibitors
Assay type: cell-based
Details: adipocytes treated by insulin in presence of inhibitor
Experimental: Adipocyte differentiation was monitored by staining lipids with oil-red O. Briefly, cells were washed twice with phosphate buffered saline (PBS) and fixed with 3.7% formaldehyde solution for 1 h. After washing twice with PBS, cells were stained with oil-red O [60:40 (v/v) dilution in water of 0.5% stock solution (v/v, in isopropanol)] for 1 h. Cells were then washed twice with PBS and twice with water. Lipid-positive cells started to appear after the third day of induction and reached more than 90% by the eighth day. PPARγ (peroxisome proliferator-activated receptor gamma) mRNA, another marker of adipocyte differentiation, also started to appear at the third day and reached a plateau by the 5th day. For RNA analysis, total RNA (12 μg), prepared with acid guanidinium thiocyanate-phenol-chloroform method, was resolved by agarose gel electrophoresis under denaturing conditions and transferred to a nylon membrane as described (Northern blotting) (Ziegler, A., et al., 1991, J Biol Chem 266(31): 21067-74). Equal RNA loading and transfer to nylon membranes were confirmed by staining rRNA with methylene blue (Herrin, D. L. and G. W. Schmidt, 1988, Biotechniques 6(3): 196-7, 199-200). […] Levels of specific RNA were measured using a Molecular Dynamic PhosphorImager. […]

COC[C@H]1OC(=O)c2coc3c2[C@@]1(C)C1=C(C3=O)[C@@H]2CCC(=O)[C@@]2(C)C[C@H]1OC(C)=O [wortmannin]
PAI-1 induction by insulin: enhanced
